{
  "sequences": {"note": "Protein sequences, listed by entry. Tags and fused reporters are not part of them. Lines headed by an entry give the natural chain unless they say otherwise; changes in a name come on top.", "UniProt Q01726": "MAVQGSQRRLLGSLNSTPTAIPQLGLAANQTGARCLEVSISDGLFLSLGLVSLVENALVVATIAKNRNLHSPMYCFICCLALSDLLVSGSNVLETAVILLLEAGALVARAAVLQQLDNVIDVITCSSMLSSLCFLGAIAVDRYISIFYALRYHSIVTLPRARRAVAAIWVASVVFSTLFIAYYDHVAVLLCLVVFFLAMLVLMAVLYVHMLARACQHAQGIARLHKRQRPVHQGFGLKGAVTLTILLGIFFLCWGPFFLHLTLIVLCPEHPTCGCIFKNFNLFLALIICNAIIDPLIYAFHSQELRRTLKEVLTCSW"},
  "source": "patent US7662782B2",
  "about": "“Melanocortin 1 receptor selective compounds” (Action Pharma A/S, priority 1998, dated 2010)",
  "assay_type_in_all_cases": "cell-based",
  "key": {"human MC1-receptor": {"target": "human MC1-receptor (Homo sapiens, UniProt Q01726)", "test": "Stimulation of cAMP formation in B16G4F cells stably expressing human MC1-receptors", "design": "expressed in transfected cells", "conditions": "vs untreated control cells, mean ± SD of 3 experiments", "method": "Human MC1-receptors had been cloned earlier into pZeoSV (Invitrogen) (Szardenings et al., 1997). The resulting vectors were used for transformation of the amelanotic mouse melanoma cell line B16G4F that lacks the mouse MC1-receptors (Solca et al., 1993) using liposomes (Campbell, 1995) as described previously (Schiöth et al., 1997b). Cells were cultivated in Dulbecco's modified Eagle's medium with 10% fetal calf serum at 7% CO2 for 24 hours and seeded on large plates in the same medium containing 300 μg/ml Zeocin. The medium was exchanged every 4-5 days until cell foci appeared. Single foci were isolated and grown under antibiotic selection.\nFor cAMP measurements the cells were detached from 60-80% confluent adherent cultures using Hank's balanced salts containing 0.5 mM EDTA and incubated for 30-60 min at 37° C. in ordinary growth medium containing 0.5 mM of the phosphodiesterase inhibitor 3-isobutyl-1-methyl-xanthine (IBMX). 20 μl aliquots of appropriate dilutions of test compounds in growth medium were prepared in 96 well microtitre plates and placed in a water bath at 37° C. For the stimulation about 1.5×10^5 cells in 180 μl were quickly added to each well to obtain immediate mixing. After 20 min 20 μl of 4.4 M perchloric acid were added, mixed, neutralized after a few minutes by addition of 20 μl base (5 M KOH, 1 M Tris) and centrifuged.\n20 μl of acid treated supernatant obtained above were mixed with 50 μl buffer (100 mM Tris-Cl, 250 mM NaCl, 10 mM EDTA, 0.1% mercaptoethanol, 0.5 mM IBMX, pH=7.4) containing 0.01 μCi [^3H]cAMP (Amersham, 1.04 TBq/mmol, 1 μCi/μl, product no.: TRK304). […]\nAfter completion of incubation the solutions were filtered over GF-B glassfibre filters (Whatman) and washed briefly with ca. 2 ml ice-cold washing buffer (50 mM Tris-Cl, pH=7.4). Radioactivity on the filters was measured after-addition of scintillation liquid. Stimulation experiments were determined in quadruplicates and standard curves in duplicates."}, "[1]": {"system": "human microvascular endothelial cells (HMEC-1 cells)", "test": "TNF α induced adhesion molecule expression in HMEC-1 cells", "conditions": "TNF α 10 ng/mL", "method": "In further tests the MS05 or MS09 was administered to human microvascular endothelial cells (HMEC-1 cells; Department of Health & Human Services, Centres for Disease Control and Prevention, Atlanta, Ga. 30333, USA) in vitro. […] In this context by ICAM-1 is intended intercellular adhesion molecule type 1, by VCAM is intended vascular adhesion molecule, and by E-Selectin is intended endothelial selectin (Sluiter et al, J. Cardiovasc. Pharmacol. 1993, 22 Suppl 4: S37-44, Elangbam et al., Vet. Pathol. 1997 Jan. 34(1): 61-73)."}, "[2]": {"system": "mouse RAW 264.7 macrophage cells", "test": "Inhibition of nitric oxide production in LPS/interferon gamma stimulated RAW 264.7 cells", "conditions": "FIG. 6; 100 ng/mL LPS + 5 units/mL interferon gamma, 16 h; potencies and efficacies similar to α-MSH", "method": "RAW 264.7 cells (TIB-71), obtained from American Type Culture Collection, 12301 Parklawn Drive, Rockville, Md., 20852, USA, and cultured in Dulbecco's modified Eagle medium (Gibco, BRL) supplemented with 10% heat-inactivated fetal bovine serum, 100 IU penicillin/ml and 100 μg streptomycin/ml at 37° C. in a humidified atmosphere of 95% air and 5% CO2. Cells grown in monolayers were detached from the culture flasks and collected by low speed centrifugation (700×g). […]\nNitric oxide was measured by monitoring the nitrite production essentially using the method of Wishnok et al. (Methods in Enzymology, 1996, 268, 130-151). In brief 50 μL of culture medium was mixed with 50 μL Griess reagent (i.e. a 1:1 mixture of 0.1% N-naphthylethylenediamine dihydrochloride and 1% sulfanilamide in 5% (v/v) phosphoric acid) and after 10 min the absorption was measured at 540 nm. The nitrite concentrations were calculated from a standard curve constructed, by instead of culture medium, adding 50 μL of between 3 to 100 μM of NaNO2 to the assays."}},
  "note": "Part of at least one peptide drawing is inferred or uncertain, most often the ends. For part of these data: For at least one compound, name, drawing or mass did not settle the structure. Square brackets hold non-standard residues; d marks the D form. Peptide text beside a SMILES is read from it.",
  "data": [
    {"smiles": "CC[C@H](C)[C@H](NC(=O)[C@H](CO)NC(=O)[C@@H](N)CO)C(=O)N[C@H](C(=O)N[C@@H](CO)C(=O)N[C@@H](Cc1c[nH]cn1)C(=O)N[C@H](Cc1ccccc1)C(=O)N[C@@H](CCCNC(=N)N)C(=O)N[C@@H](Cc1c[nH]c2ccccc12)C(=O)NCC(=O)N[C@@H](CCCCN)C(=O)N1CCC[C@H]1C(=O)N[C@H](C(N)=O)C(C)C)[C@@H](C)CC", "note": "[MS09, Ser-Ser-Ile-Ile-Ser-His-dPhe-Arg-Trp-Gly-Lys-Pro-Val-NH2] (H-SSIISH[dF]RWGKPV-NH2)", "values": [
      {"measurement": "Fold stimulation of cAMP", "setting": "human MC1-receptor; 10 nM compound", "result": "5.5 ± 0.9", "unit": "fold"},
      {"measurement": "Fold stimulation of cAMP", "setting": "human MC1-receptor; 1 μM compound", "result": "7.0 ± 0.4", "unit": "fold"},
      {"measurement": "TNF α upregulated expression of mRNA for ICAM-1, VCAM and E-Selectin", "setting": "[1]", "result": "inhibition of the upregulated expression of mRNA"},
      {"measurement": "TNF α upregulation of the ICAM-1, VCAM and E-Selectin proteins", "setting": "[1]", "result": "inhibition of the upregulation"},
      {"measurement": "inhibition of NO-production", "setting": "[2]", "result": "strong dose dependent inhibition"}
    ]},
    {"smiles": "C=C[C@@]1(C)CC(=O)[C@]2(O)[C@@]3(C)[C@@H](O)CCC(C)(C)[C@@H]3[C@H](O)[C@H](OC(C)=O)[C@@]2(C)O1", "note": "[Forskolin, reference compound]", "values": [
      {"measurement": "Fold stimulation of cAMP", "setting": "human MC1-receptor; 1 μM compound", "result": "7.3 ± 1.1", "unit": "fold"}
    ]}
  ]
}
